Experimental data: PubChem BioAssay AID504764 (Drosophila RNAi Screening Center, 2011)
The deposit covers about 22,000 reagents; shown is a random part of those that have a named target and a result. Over the whole deposit, 403 (1.9%) got an active call. 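Unnormalised raw counts per well; ratio z-scores behind the hit calls and whether each hit raises or lowers signal are not deposited.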 A number with no mark means an inactive call. The numbers tell different reagents against one gene apart. Reagent sequences are not shown. The record does not give: the amount of reagent.

Screen: 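Knock-downs that raise or lower a Notch target reporter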 (primary screen)
System: Drosophila Kc167 cells
Knock-down reagent: long dsRNA against Drosophila genes
Duration: about 5 days (4 days dsRNA, then 24 h after transfection)
Challenge: transfection of constitutively active membrane-tethered Notch lacking the extracellular domain, read 24 h later
Measurement: 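Firefly luciferase from an E(spl)m3 reporter with active Notch, plus control-promoter and uninduced reporter wells for normalisation; unnormalised counts, duplicate wells a and b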
Scale: induced reporter light, run 1, well a and induced reporter light, run 1, well b: higher = more light from the Notch target reporter with active Notch; control promoter light, run 1, well a and control promoter light, run 1, well b: higher = more light from the viral control promoter (cell number, transfection, viability); uninduced reporter light, run 1, well a: higher = more light from the Notch target reporter without active Notch
Call rule: 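Hit if the duplicate-averaged log2 ratio of induced to control-promoter light gives a plate-wise z beyond ±2, or induced to uninduced beyond ±1.8; weak-control or discordant-duplicate wells dropped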
Calls: active = modifier hit (raised or lowered Notch signal); inactive = not a hit

| predicted target | dsRNA no. | induced reporter light, run 1, well a | induced reporter light, run 1, well b | control promoter light, run 1, well a | control promoter light, run 1, well b | uninduced reporter light, run 1, well a |
| --- | --- | --- | --- | --- | --- | --- |
| Rint1 (RAD50 interactor 1) | 1 | 1.23e5 | 90965 | 72140 | 26820 | 7670 |
| EloB (Elongin B) | 1 | 1.90e5 | 1.83e5 | 2.12e5 | 2.17e5 | 11710 |
| CG8500 | 1 | 57160 | 47675 | 52490 | 37635 | 3532 |
| CG4101 | 1 | 1.48e5 | 1.29e5 | 2.14e5 | 1.55e5 | 7640 |
| CG18476 | 1 | 1.20e5 | 1.31e5 | 61360 | 53735 | 9138 |
| CG30271 | 1 | 1.95e5 | 1.55e5 | 1.98e5 | 1.70e5 | 13378 |
| CG9222 | 1 | 1.72e5 | 1.62e5 | 2.53e5 | 1.73e5 | 11160 |
| Kdm5 (Lysine demethylase 5) | 1 | 1.69e5 (active) | 1.34e5 | 1.19e5 | 1.19e5 | 7720 |

Targets listed so far whose gene name begins with C or c (5):
| predicted target | dsRNA no. | induced reporter light, run 1, well a | induced reporter light, run 1, well b | control promoter light, run 1, well a | control promoter light, run 1, well b | uninduced reporter light, run 1, well a |
| --- | --- | --- | --- | --- | --- | --- |
| CG8500 | 1 | 57160 | 47675 | 52490 | 37635 | 3532 |
| CG4101 | 1 | 1.48e5 | 1.29e5 | 2.14e5 | 1.55e5 | 7640 |
| CG18476 | 1 | 1.20e5 | 1.31e5 | 61360 | 53735 | 9138 |
| CG30271 | 1 | 1.95e5 | 1.55e5 | 1.98e5 | 1.70e5 | 13378 |
| CG9222 | 1 | 1.72e5 | 1.62e5 | 2.53e5 | 1.73e5 | 11160 |

Next results follow:
| predicted target | dsRNA no. | induced reporter light, run 1, well a | induced reporter light, run 1, well b | control promoter light, run 1, well a | control promoter light, run 1, well b | uninduced reporter light, run 1, well a |
| --- | --- | --- | --- | --- | --- | --- |
| Cyp28d2 (Cytochrome P450 28d2) | 1 | 98225 | 70605 | 90175 | 79810 | 5840 |
| Ubc2 (Ubiquitin conjugating enzyme 2) | 1 | 1.22e5 | 1.61e5 | 1.53e5 | 1.58e5 | 10950 |
| Ubc2 (Ubiquitin conjugating enzyme 2) | 2 | 1.21e5 | 1.36e5 | 72430 | 1.10e5 | 18800 |
| CG11638 | 1 | 1.07e5 | 1.22e5 | 1.71e5 | 2.20e5 | 8700 |
| CG11638 | 2 | 75105 | 74710 | 1.09e5 | 1.31e5 | 7240 |
| Tbc1d15-17 (TBC1 domain family member 15/17) | 1 | 1.57e5 | 1.84e5 | 2.41e5 | 2.61e5 | 17038 |
| tefu (telomere fusion) | 1 | 2.28e5 | 1.82e5 | 2.03e5 | 1.92e5 | 15825 |
| Smu1 (Smu1 spliceosomal factor) | 1 | 92085 | 1.28e5 | 1.20e5 | 1.09e5 | 7785 |
| Dhx15 (DEAH-box helicase 15) | 1 | 1.43e5 (active) | 1.75e5 | 1.22e5 | 1.28e5 | 13415 |
| CG3168 | 1 | 2.77e5 | 2.20e5 | 2.81e5 | 2.90e5 | 13988 |
| CG8765 | 1 | 6010 | 4425 | 5245 | 3520 | 1278 |
| Lis-1 (Lissencephaly-1) | 1 | 1.06e5 | 99235 | 83255 | 1.29e5 | 6770 |
